This assay deals with T1, PGC1α (Peroxisome proliferator-activated receptor γ, coactivator 1α) (human (endogenous in 5-8F and MGC803)) (UniProt Q9UBK2).
T1 sequence: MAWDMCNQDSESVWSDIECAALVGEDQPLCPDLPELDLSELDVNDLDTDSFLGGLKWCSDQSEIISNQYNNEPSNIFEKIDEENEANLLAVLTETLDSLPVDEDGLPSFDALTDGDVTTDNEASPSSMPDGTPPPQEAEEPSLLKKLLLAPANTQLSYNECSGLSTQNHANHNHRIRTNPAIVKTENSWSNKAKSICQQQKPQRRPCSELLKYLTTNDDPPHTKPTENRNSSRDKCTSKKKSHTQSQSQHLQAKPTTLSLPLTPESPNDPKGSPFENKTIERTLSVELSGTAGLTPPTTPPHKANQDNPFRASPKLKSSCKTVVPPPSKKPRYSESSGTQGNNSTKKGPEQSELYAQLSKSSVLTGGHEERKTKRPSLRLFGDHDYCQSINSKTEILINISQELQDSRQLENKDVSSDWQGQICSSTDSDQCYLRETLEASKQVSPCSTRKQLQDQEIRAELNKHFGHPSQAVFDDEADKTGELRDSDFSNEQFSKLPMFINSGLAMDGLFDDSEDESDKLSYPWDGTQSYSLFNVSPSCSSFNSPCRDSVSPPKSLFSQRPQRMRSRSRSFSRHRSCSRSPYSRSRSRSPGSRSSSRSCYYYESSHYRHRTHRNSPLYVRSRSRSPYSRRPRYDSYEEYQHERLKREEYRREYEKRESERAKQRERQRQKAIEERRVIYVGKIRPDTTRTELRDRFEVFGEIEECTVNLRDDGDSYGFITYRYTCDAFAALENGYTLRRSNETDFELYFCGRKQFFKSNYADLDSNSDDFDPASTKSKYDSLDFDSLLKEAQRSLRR
Nature of the assay: affinity purification with mass spectrometry; Co-IP pulldown with anti-PGC1α antibody on Protein G agarose, followed by LC/MS/MS; cell line not stated.

Amino acid sequences for entries named in this document (tags omitted).
UniProt Q92481: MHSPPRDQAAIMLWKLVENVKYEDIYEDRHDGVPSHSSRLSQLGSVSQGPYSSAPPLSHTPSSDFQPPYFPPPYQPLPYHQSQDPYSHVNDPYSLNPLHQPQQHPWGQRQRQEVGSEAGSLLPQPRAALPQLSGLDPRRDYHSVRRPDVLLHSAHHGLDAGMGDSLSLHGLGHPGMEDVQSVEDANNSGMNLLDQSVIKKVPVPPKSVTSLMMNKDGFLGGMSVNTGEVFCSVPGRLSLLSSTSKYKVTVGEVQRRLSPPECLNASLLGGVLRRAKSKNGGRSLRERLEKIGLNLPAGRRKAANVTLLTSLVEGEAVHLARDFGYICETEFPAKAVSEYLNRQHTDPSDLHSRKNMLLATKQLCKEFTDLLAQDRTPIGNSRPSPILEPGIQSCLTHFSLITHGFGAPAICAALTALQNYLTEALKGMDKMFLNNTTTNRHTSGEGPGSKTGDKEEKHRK

These are yes or no findings as the source states them, for the method shown. In cells and extracts the contact can be indirect. A yes stands for co-enrichment or nearness to the bait. Other partners may have been found.

For AP2β (from UniProt Q92481 1-460), the binding entry is recorded as “binds”.

B1: LSF (also known as TFCP2) (protein, UniProt Q12800 1-502)
chain: MAWALKLPLADEVIESGLVQDFDASLSGIGQELGAGAYSMSDVLALPIFKQEESSLPPDNENKILPFQYVLCAATSPAVKLHDETLTYLNQGQSYEIRMLDNRKLGELPEINGKLVKSIFRVVFHDRRLQYTEHQQLEGWRWNRPGDRILDIDIPMSVGIIDPRANPTQLNTVEFLWDPAKRTSVFIQVHCISTEFTMRKHGGEKGVPFRVQIDTFKENENGEYTEHLHSASCQIKVFKPKGADRKQKTDREKMEKRTPHEKEKYQPSYETTILTECSPWPEITYVNNSPSPGFNSSHSSFSLGEGNGSPNHQPEPPPPVTDNLLPTTTPQEAQQWLHRNRFSTFTRLFTNFSGADLLKLTRDDVIQICGPADGIRLFNALKGRMVRPRLTIYVCQESLQLREQQQQQQQQQQKHEDGDSNGTFFVYHAIYLEELTAVELTEKIAQLFSISPCQISQIYKQGPTGIHVLISDEMIQNFQEEACFILDTMKAETNDSYHIILK
Regarding B1, the binding entry is “binds”.

The values above are taken from article PMC5356584.
